Reference: PubChem BioAssay AID214 (DTP/NCI, 2004)
The list does not hold the whole screen: its compounds were picked by chemical class. Not every dose and run of a compound is shown. T/C is the treated group as % of the vehicle group. Schedule codes are those of the source, taken here to give the interval after Q, in days (D) or hours (H), and the number of doses after X. Some doses were run more than once; the results are listed from low to high. Some T/C values are followed by the survivors on the day toxicity was checked; where neither a count nor a note follows, no animal had died by that day. Some entries give survivors of the animals treated and no T/C: the source holds a T/C of zero for them, seemingly a mark for toxic or unscored doses. Survivors were counted at the toxicity check; its day is shown where the source gives one, and later deaths do not show.

System: B6C3F1 mice, colon carcinoma 38 s.c., T/C
Test: NCI In Vivo Anticancer Drug Screen. Data for tumor model Colon Carcinoma 38 (subcutaneous) in B6C3F1 mice
Conditions: T/C endpoint: median tumor weight (est.), schedule: Q07DX002 (ip), higher T/C = larger tumour; for T/C: evaluated on day 20
Experimental: The antitumor activity of compounds was measured in mice bearing transplantable tumors. Survival or tumor size were measured and the results are expressed as the measurement made in the treated group (T) divided by the measurement made in the vehicle treated control group (C). The tumor model used in this assay is Colon Carcinoma 38 (subcutaneous) in B6C3F1 mice

## ClC1CSC1
dose: 50.0 mg/kg/injection, vehicle: saline with Tween-80
  T/C: 126 % of control [8 of 10 alive on day 20]
dose: 100.0 mg/kg/injection, vehicle: saline with Tween-80
  T/C: 86 % of control
dose: 200.0 mg/kg/injection, vehicle: saline with Tween-80
  T/C: 81 % of control
dose: 400.0 mg/kg/injection, vehicle: saline with Tween-80
  survivor count: 0 of 10 on day 20
dose: 800.0 mg/kg/injection, vehicle: saline with Tween-80
  survivor count: 0 of 10 on day 20

## CCN(CC)CCOC(=O)C(O)(c1cccc(OC)c1OC)c1cccc(OC)c1OC
dose: 20.0 mg/kg/injection, vehicle: Klucel (hydroxypropylcellulose) (HPC)
  T/C: 112 % of control

## NC(=O)c1[nH]cnc1/N=N\N(CCCl)CCCl
dose: 31.25 mg/kg/injection, vehicle: saline with Tween-80
  T/C: 40 % of control
dose: 62.5 mg/kg/injection, vehicle: saline with Tween-80
  T/C: 52 and 79 % of control
dose: 125.0 mg/kg/injection, vehicle: saline with Tween-80
  T/C: 52 and 56 % of control
dose: 250.0 mg/kg/injection, vehicle: saline with Tween-80
  T/C: 12 [9 of 10 alive on day 20] and 27 % of control [9 of 10 alive on day 20]
dose: 500.0 mg/kg/injection, vehicle: saline with Tween-80
  survivor count: 1 of 10 on day 20 and 3 of 10 on day 20
